{"source": "patent US12558324B2", "about": "“Application of R-ketamine and salt thereof as pharmaceuticals” (National University Corporation Chiba University, priority 2013, dated 2026)", "key": {"[1]": {"system": "social defeat stress mice", "assay": "Locomotion test (LMT) in social defeat stress mice", "conditions": "10 mg/kg i.p. single injection, 2 days after injection, vs normal and saline groups"}, "[2]": {"system": "mice exposed neonatally to DEX", "assay": "Locomotion test (LMT) in DEX-treated mice", "conditions": "DEX-treated juvenile mice; 10 mg/kg i.p. single injection; day after injection; vs control and saline groups"}}}
{"molecule": "CN[C@@]1(c2ccccc2Cl)CCCCC1=O.Cl", "note": "[R(−)-ketamine, R(−)-ketamine hydrochloride]", "values": [{"measurement": "locomotion in the LMT (count/60 min)", "setting": "[1]", "result": "no difference in locomotion"}, {"measurement": "locomotion in the LMT (count/60 min)", "setting": "[2]", "result": "no difference in locomotion"}]}
{"molecule": "CN[C@]1(c2ccccc2Cl)CCCCC1=O.Cl", "note": "[S(+)-ketamine, S(+)-ketamine hydrochloride]", "values": [{"measurement": "locomotion in the LMT (count/60 min)", "setting": "[1]", "result": "no difference in locomotion"}, {"measurement": "locomotion in the LMT (count/60 min)", "setting": "[2]", "result": "no difference in locomotion"}]}
